Experimental data: paper PMC4604688
No constants are given. Whether binding was seen depends on the method and setting. Binding seen in cells or lysates may run through a third protein.

Molecular target: p53 (endogenous, p53 wt/wt HCT116) (human (endogenous in HCT116)) (UniProt P04637)
Assay: co-IP; p53 precipitated from PHD1-silenced (and control) HCT116, untreated or treated with 300 μM 5-FU for 8 h; blot for XPD

binding: no binding
B1: XPD (component of TFIIH) (enzyme, UniProt P18074 1-760)
chain: MKLNVDGLLVYFPYDYIYPEQFSYMRELKRTLDAKGHGVLEMPSGTGKTVSLLALIMAYQRAYPLEVTKLIYCSRTVPEIEKVIEELRKLLNFYEKQEGEKLPFLGLALSSRKNLCIHPEVTPLRFGKDVDGKCHSLTASYVRAQYQHDTSLPHCRFYEEFDAHGREVPLPAGIYNLDDLKALGRRQGWCPYFLARYSILHANVVVYSYHYLLDPKIADLVSKELARKAVVVFDEAHNIDNVCIDSMSVNLTRRTLDRCQGNLETLQKTVLRIKETDEQRLRDEYRRLVEGLREASAARETDAHLANPVLPDEVLQEAVPGSIRTAEHFLGFLRRLLEYVKWRLRVQHVVQESPPAFLSGLAQRVCIQRKPLRFCAERLRSLLHTLEITDLADFSPLTLLANFATLVSTYAKGFTIIIEPFDDRTPTIANPILHFSCMDASLAIKPVFERFQSVIITSGTLSPLDIYPKILDFHPVTMATFTMTLARVCLCPMIIGRGNDQVAISSKFETREDIAVIRNYGNLLLEMSAVVPDGIVAFFTSYQYMESTVASWYEQGILENIQRNKLLFIETQDGAETSVALEKYQEACENGRGAILLSVARGKVSEGIDFVHHYGRAVIMFGVPYVYTQSRILKARLEYLRDQFQIRENDFLTFDAMRHAAQCVGRAIRGKTDYGLMVFADKRFARGDKRGKLPRWIQEHLTDANLNLTVDEGVQVAKYFLRQMAQPFHREDQLGLSLLSLEQLESEETLKRIEQIAQQL
